Results are given in words; binding and its absence hold for the method and conditions named. Some results given as binding are weak or reduced against the parent protein; the word gives no strength. For some of these results: Sequences can lack the tags named with a protein.
How the values were obtained:
[1] = target: T1, BMP-CD59a reporter (biotin mimetic peptide fused via (G4S)2G4 to mouse CD59a, GPI-anchored on CHO-S cells) (mouse); test: FACS on transfected CHO-S cells
T1 sequence (chain, GPI anchor at the C-terminal end of CD59a): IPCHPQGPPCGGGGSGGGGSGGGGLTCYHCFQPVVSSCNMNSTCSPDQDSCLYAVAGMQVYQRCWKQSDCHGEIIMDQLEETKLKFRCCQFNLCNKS

[2] = target: T1, BMP-CD59a reporter (biotin mimetic peptide fused via (G4S)2G4 to mouse CD59a, GPI-anchored on CHO-S cells) (mouse); test: FACS on stable CHO-S pools labeled with F-SA
[3] = target: BMP-PAC reporter (BMP, synthetic carrier peptide, IGF-1R transmembrane peptide, (G4S)4, puromycin N-acetyl transferase; on CHO-S cells) (mouse); test: FACS on stable CHO-S pools labeled with F-SA
[4] = target: BMP-Peptide carrier-TM reporter (BMP, synthetic carrier peptide, IGF-1R transmembrane peptide; on CHO-S cells) (mouse); test: FACS on stable CHO-S pools labeled with F-SA

Measured: binding

R-Phycoerythrin-conjugated Streptavidin (from UniProt P22629 37-163)
binds: all assays above
